Results taken from the supplement of paper PMC10032668.
This is one part of the list. The list holds hits alone, and they repeat only in part.

Chains of the proteins cited; added tags and fusions are not shown.
HSP90B1, P14625, UniProt P14625, whole entry: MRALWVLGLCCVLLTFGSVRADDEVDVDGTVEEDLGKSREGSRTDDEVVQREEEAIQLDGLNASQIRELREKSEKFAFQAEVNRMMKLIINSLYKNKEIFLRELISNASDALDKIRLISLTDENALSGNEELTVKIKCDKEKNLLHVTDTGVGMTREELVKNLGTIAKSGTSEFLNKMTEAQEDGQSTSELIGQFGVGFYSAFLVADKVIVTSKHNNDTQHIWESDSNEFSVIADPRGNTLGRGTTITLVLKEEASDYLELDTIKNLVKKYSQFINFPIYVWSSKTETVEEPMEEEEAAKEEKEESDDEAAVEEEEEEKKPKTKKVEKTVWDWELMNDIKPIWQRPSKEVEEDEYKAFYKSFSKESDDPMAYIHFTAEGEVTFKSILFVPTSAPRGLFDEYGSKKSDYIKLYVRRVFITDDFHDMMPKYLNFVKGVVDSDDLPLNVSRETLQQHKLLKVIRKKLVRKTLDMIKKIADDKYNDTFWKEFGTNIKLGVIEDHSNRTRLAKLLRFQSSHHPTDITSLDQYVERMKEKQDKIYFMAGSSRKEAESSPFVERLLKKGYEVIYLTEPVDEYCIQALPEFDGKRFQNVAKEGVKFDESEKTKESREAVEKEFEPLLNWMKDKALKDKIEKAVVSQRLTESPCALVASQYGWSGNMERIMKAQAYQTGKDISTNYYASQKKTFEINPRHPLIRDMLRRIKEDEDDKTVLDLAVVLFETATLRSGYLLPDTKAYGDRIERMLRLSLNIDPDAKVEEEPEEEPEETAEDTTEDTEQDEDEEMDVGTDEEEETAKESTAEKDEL
LANCL1, O43813, UniProt O43813, whole entry: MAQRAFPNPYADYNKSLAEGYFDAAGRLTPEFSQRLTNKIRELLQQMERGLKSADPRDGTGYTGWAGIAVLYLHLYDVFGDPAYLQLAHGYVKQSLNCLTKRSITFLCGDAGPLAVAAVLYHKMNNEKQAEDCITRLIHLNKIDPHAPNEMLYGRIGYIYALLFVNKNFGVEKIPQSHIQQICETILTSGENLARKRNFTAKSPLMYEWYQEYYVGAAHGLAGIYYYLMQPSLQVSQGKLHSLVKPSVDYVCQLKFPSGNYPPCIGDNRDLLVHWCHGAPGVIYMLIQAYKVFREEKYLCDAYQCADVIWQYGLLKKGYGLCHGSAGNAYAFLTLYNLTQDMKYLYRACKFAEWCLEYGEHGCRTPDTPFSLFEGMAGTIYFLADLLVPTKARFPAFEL
MAGOHB, Q96A72, UniProt Q96A72, whole entry: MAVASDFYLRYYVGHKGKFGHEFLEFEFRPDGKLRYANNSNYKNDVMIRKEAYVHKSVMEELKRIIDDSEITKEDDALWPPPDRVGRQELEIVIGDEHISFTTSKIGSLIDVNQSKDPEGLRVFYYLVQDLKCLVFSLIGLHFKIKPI
RBBP4, Q09028, UniProt Q09028, whole entry: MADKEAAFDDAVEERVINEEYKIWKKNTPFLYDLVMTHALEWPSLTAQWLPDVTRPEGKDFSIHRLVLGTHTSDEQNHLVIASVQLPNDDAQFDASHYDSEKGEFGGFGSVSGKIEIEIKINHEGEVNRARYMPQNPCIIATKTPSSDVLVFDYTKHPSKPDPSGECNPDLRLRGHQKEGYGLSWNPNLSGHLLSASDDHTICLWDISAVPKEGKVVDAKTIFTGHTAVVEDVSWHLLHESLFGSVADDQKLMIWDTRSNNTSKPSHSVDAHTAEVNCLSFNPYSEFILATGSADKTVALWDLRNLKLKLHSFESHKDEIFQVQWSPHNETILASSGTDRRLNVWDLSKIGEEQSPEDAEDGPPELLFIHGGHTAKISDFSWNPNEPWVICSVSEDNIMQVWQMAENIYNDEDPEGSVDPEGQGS
SF3B1, O75533, UniProt O75533, whole entry: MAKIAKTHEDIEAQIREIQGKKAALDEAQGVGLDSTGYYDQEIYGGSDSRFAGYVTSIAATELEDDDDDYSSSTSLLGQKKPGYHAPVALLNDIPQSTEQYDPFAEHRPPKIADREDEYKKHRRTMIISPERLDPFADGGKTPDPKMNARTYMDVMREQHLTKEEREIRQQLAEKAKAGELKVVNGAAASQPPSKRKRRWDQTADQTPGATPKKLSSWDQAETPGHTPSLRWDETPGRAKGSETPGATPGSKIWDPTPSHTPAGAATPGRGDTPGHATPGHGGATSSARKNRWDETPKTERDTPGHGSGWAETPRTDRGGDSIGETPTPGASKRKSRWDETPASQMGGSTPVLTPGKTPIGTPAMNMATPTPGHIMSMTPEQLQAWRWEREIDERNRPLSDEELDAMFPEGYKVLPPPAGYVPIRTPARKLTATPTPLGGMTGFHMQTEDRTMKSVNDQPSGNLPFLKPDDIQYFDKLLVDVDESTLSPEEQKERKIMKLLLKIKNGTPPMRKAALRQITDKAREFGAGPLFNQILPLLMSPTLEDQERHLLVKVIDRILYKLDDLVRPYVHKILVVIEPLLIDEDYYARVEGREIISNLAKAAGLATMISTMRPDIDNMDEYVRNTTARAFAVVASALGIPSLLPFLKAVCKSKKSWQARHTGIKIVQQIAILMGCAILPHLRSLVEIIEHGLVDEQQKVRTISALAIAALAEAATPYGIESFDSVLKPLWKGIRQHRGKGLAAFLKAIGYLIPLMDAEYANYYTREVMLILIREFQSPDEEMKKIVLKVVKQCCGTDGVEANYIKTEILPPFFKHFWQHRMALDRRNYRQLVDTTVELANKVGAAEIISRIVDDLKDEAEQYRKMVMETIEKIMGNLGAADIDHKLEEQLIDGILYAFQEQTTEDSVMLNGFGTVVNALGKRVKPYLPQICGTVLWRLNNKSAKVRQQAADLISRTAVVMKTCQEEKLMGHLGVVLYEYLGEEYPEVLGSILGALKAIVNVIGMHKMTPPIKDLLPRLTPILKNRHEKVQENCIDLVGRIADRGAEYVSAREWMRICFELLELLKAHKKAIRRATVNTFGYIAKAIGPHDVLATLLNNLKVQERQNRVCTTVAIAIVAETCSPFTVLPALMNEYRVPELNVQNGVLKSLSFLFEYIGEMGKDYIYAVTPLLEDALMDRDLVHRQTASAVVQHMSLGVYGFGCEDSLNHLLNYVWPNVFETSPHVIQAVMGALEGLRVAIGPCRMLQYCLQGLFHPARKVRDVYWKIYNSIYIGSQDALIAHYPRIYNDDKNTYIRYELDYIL
SMARCC1, Q92922, UniProt Q92922, whole entry: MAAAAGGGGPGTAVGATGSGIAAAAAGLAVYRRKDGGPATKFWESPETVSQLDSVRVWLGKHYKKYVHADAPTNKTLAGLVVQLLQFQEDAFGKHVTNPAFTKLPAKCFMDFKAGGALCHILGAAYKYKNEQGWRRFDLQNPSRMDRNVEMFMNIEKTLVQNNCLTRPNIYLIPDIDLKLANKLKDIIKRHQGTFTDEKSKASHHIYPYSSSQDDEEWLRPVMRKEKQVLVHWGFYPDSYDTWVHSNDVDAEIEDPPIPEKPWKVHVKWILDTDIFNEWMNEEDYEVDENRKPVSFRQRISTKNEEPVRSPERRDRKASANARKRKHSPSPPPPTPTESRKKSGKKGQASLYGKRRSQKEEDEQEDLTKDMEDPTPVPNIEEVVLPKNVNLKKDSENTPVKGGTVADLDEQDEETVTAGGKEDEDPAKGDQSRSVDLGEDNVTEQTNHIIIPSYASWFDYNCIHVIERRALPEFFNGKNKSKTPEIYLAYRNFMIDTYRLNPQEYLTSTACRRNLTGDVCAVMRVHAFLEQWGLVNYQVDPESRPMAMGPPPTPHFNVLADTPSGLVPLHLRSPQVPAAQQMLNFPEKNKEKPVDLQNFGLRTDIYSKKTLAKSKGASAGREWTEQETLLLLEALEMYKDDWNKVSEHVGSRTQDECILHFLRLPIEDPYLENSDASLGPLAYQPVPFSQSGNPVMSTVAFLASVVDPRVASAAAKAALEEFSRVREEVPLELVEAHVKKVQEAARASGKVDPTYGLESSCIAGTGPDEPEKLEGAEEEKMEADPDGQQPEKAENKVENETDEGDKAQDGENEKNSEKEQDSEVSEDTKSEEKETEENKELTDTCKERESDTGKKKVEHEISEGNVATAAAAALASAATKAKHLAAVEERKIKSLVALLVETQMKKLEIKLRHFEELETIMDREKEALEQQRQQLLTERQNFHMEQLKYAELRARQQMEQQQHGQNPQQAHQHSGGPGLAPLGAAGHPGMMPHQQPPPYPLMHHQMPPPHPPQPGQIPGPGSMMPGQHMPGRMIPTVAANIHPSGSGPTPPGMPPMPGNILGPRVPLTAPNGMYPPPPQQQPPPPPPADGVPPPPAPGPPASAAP
DNM1L, O00429, UniProt O00429, whole entry: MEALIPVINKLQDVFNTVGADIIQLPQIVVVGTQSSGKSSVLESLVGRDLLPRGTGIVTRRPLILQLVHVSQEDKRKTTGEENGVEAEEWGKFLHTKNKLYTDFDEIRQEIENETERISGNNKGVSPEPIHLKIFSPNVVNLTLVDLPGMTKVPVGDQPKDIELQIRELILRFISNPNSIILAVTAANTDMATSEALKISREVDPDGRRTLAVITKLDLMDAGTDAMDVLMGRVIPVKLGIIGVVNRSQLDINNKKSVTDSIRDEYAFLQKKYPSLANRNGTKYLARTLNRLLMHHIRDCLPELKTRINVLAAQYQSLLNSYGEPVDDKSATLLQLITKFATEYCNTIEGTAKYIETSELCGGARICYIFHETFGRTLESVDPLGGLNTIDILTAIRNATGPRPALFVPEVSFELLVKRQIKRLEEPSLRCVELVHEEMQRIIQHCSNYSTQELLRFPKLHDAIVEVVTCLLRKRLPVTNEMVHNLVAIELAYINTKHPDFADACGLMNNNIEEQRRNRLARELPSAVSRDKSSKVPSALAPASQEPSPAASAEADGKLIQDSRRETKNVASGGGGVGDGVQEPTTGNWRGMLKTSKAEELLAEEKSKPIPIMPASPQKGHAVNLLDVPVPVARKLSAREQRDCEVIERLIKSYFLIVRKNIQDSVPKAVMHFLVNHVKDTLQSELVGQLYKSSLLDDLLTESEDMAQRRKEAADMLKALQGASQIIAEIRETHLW
SKP1, P63208, UniProt P63208, whole entry: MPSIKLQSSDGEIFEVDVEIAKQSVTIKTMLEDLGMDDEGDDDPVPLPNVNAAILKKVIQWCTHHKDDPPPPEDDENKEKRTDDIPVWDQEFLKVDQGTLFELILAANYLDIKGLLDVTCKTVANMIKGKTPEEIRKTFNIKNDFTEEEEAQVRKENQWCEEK

What was measured:
Assay in all cases: PRISMA enrichment of interactor (LFQ) in peptide spot vs all other peptide spots (log2 fold change); higher = stronger / more specific binding of the interactor to the peptide
[1] = molecular target: CHMP1A, Q9HD42
Protocol: (§1)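 PRISMA: 15-aa overlapping tiles (offset 8 aa) of 60 microproteins, plus SOS1/GLUT1 control peptides, were spot-synthesized on cellulose membranes in triplicate. Membranes were incubated with benzonase-treated HEK293T lysate, and bound proteins were identified by LC-MS/MS with LFQ. Enrichment is the log2 fold change of each protein in one spot versus all other spots. Only interactors passing the significance cutoff are listed.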

[2] = molecular target: DDX27, Q96GQ7
Protocol: as §1

[3] = molecular target: HSP90B1, P14625
Protocol: as §1

[4] = molecular target: LANCL1, O43813
Protocol: as §1

[5] = molecular target: LEO1, Q8WVC0
Protocol: as §1

[6] = molecular target: LTF, P02788
Protocol: as §1

[7] = molecular target: MAGOHB, Q96A72
Protocol: as §1

[8] = molecular target: MRPL49, Q13405
Protocol: as §1

[9] = molecular target: NAA35, Q5VZE5
Protocol: as §1

[10] = molecular target: NDUFB10, O96000
Protocol: as §1

[11] = molecular target: NEFM, P07197
Protocol: as §1

[12] = molecular target: PDAP1, Q13442
Protocol: as §1

[13] = molecular target: POLR2E, P19388
Protocol: as §1

[14] = molecular target: POU2F1, P14859
Protocol: as §1

[15] = molecular target: RBBP4, Q09028
Protocol: as §1

[16] = molecular target: RBBP6, Q7Z6E9
Protocol: as §1

[17] = molecular target: SCML2, Q9UQR0
Protocol: as §1

[18] = molecular target: SEPTIN7, Q16181
Protocol: as §1

[19] = molecular target: SF3B1, O75533
Protocol: as §1

[20] = molecular target: SMARCC1, Q92922
Protocol: as §1

[21] = molecular target: SNU13, P55769
Protocol: as §1

[22] = molecular target: UPF1, Q92900
Protocol: as §1

[23] = molecular target: ZNF483, Q8TF39
Protocol: as §1

[24] = molecular target: CLASP2, O75122
Protocol: as §1

[25] = molecular target: DHX15, O43143
Protocol: as §1

[26] = molecular target: DHX37, Q8IY37
Protocol: as §1

[27] = molecular target: DNM1L, O00429
Protocol: as §1

[28] = molecular target: FADS2, O95864
Protocol: as §1

[29] = molecular target: MRPS9, P82933
Protocol: as §1

[30] = molecular target: MYO1D, O94832
Protocol: as §1

[31] = molecular target: SF3B2, Q13435
Protocol: as §1

[32] = molecular target: SKP1, P63208
Protocol: as §1

[33] = molecular target: SRSF7, Q16629
Protocol: as §1

[34] = molecular target: VCL, P18206
Protocol: as §1

[35] = molecular target: CLNS1A, P54105
Protocol: as §1

[36] = molecular target: GABARAPL2, P60520
Protocol: as §1

[37] = molecular target: LCLAT1, Q6UWP7
Protocol: as §1

[38] = molecular target: SF1, Q15637
Protocol: as §1

[39] = molecular target: SHROOM3, Q8TF72
Protocol: as §1

[40] = molecular target: STAG2, Q8N3U4
Protocol: as §1

[41] = molecular target: STT3A, P46977
Protocol: as §1

What does the source list for AFSDDGAVSLSFQSR [SNHG16]?
PRISMA enrichment of interactor (log2) [1]: 4.37; PRISMA enrichment of interactor (log2) [2]: 4.67; PRISMA enrichment of interactor (log2) [3]: 5.63; PRISMA enrichment of interactor (log2) [4]: 4.07; PRISMA enrichment of interactor (log2) [5]: 4.56; PRISMA enrichment of interactor (log2) [6]: 4.55; PRISMA enrichment of interactor (log2) [7]: 6.91; PRISMA enrichment of interactor (log2) [8]: 4.72; PRISMA enrichment of interactor (log2) [9]: 4.37; PRISMA enrichment of interactor (log2) [10]: 4.74; PRISMA enrichment of interactor (log2) [11]: 4.35; PRISMA enrichment of interactor (log2) [12]: 4.97; PRISMA enrichment of interactor (log2) [13]: 5.18; PRISMA enrichment of interactor (log2) [14]: 4.03; PRISMA enrichment of interactor (log2) [15]: 6.54; PRISMA enrichment of interactor (log2) [16]: 4.45; PRISMA enrichment of interactor (log2) [17]: 4.87; PRISMA enrichment of interactor (log2) [18]: 4.17; PRISMA enrichment of interactor (log2) [19]: 4.79; PRISMA enrichment of interactor (log2) [20]: 4.72; PRISMA enrichment of interactor (log2) [21]: 5.71; PRISMA enrichment of interactor (log2) [22]: 5.72; PRISMA enrichment of interactor (log2) [23]: 5.85

What does the source list for ECSLGRRASTCSPGP [SNHG8]?
PRISMA enrichment of interactor (log2) [24]: 4.76; PRISMA enrichment of interactor (log2) [25]: 6.45; PRISMA enrichment of interactor (log2) [26]: 4.63; PRISMA enrichment of interactor (log2) [27]: 6.59; PRISMA enrichment of interactor (log2) [28]: 5.1; PRISMA enrichment of interactor (log2) [29]: 4.74; PRISMA enrichment of interactor (log2) [30]: 4.68; PRISMA enrichment of interactor (log2) [31]: 5.73; PRISMA enrichment of interactor (log2) [32]: 6.4; PRISMA enrichment of interactor (log2) [33]: 11; PRISMA enrichment of interactor (log2) [34]: 5.05

With TQLGGQEGAGGWLVV [TUG1] as the binder, how does the “PRISMA enrichment of interactor (log2)” value [35] read?
The value was 4.4.

And the “PRISMA enrichment of interactor (log2)” value [36]?
Its value is 6.98.

What about the “PRISMA enrichment of interactor (log2)” value [37] of the same binder?
Its value is 4.52.

And the “PRISMA enrichment of interactor (log2)” value [38]?
The value was 5.42.

And the “PRISMA enrichment of interactor (log2)” value [39]?
The value was 9.76.

And the “PRISMA enrichment of interactor (log2)” value [40]?
The value was 6.75.

And the “PRISMA enrichment of interactor (log2)” value [41]?
Its value is 5.05.
